Results reported in the supplement of paper PMC3334620.
In all, about 33,000 sequences were measured (“E-score (-0.5 to 0.5)”: median about -0.0014, highest 2% from about 0.25 on). Some of the results follow.

These sequences were tested against T1, Cad1 (UniProt P24813) (assay: PBM E-score (8-mer binding enrichment) (E-score (-0.5 to 0.5)); higher = stronger / more preferred TF binding). Settings: protein concentration: 100 nM; construct: GST-full length.
T1 sequence: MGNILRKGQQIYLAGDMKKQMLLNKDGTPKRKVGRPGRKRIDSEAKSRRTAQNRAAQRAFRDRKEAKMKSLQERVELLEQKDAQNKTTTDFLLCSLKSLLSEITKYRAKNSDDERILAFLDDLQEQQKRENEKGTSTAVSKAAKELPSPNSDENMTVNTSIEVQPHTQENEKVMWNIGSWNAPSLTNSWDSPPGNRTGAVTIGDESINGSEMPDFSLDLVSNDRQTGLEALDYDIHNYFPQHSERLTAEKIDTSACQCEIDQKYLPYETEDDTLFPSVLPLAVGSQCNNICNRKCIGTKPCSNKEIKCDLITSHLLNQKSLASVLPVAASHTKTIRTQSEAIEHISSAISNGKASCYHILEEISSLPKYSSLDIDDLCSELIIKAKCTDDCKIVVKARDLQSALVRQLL
Method: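 Universal 'all 10-mer' protein binding microarrays (Agilent AMADID 015681) probed with GST-tagged S. cerevisiae TFs (full-length or DBD) made by in vitro transcription/translation (PURExpress), about 100-200 nM. Bound TF was detected with fluorescent anti-GST. Each ungapped 8-mer (which stands for itself and its reverse complement) is scored by the PBM enrichment score (E-score), a modified Wilcoxon-Mann-Whitney statistic from -0.5 to +0.5, computed with the Universal PBM Analysis Suite. Scale: above 0.35 generally sequence-specific binding.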

Row | Sequence | PBM E-score
1 | AGTCACTC | -0.0896
2 | ACGCGAAA | 0.17
3 | CTCGATCA | 0.0804
4 | ACAGCTAA | 0.0315
5 | ATTAGGTG | 0.0296
6 | GAACAAGC | -0.0511
7 | ATCATTAG | 0.196
8 | ATCATACA | 0.114
9 | GAAAAGCC | -0.0605
10 | ACCTGGTA | -0.161
11 | TGTTTAAA | 0.123
12 | GCGGCCCC | -0.287
13 | TATGGGCA | 0.0378
14 | CGCGTGTC | 0.175
15 | GGATTTCA | 0.0726
16 | ATTTTAGC | 0.0914
17 | ATCTGGAC | -0.162
18 | AGGTCAGG | -0.226
19 | AGCGGGAG | -0.246
20 | ATATCCCC | -0.102
21 | GGGTCACC | -0.209
22 | CAGATCGC | -0.038
23 | AGCAGCTC | -0.174
24 | ATGGGTCC | -0.104
25 | AGGGCTAC | -0.22

Row | Sequence | PBM E-score
26 | GCACGCTA | -0.0753
27 | CTTGGTCA | 0.109
28 | CGCTCATC | 0.0707
29 | GCGGAAGA | -0.00472
30 | ACCATGTG | 0.0405
31 | TCCCATCA | -0.124
32 | AAAGCGTC | -0.0209
33 | ATAATTAG | 0.285
34 | GGCATGTA | -0.0847
35 | TATGGTAA | 0.00048
36 | GCGTGGAA | -0.0709
37 | GTACAAAC | 0.0182
38 | CATAACCA | 0.0773
39 | ATTAGTGA | 0.14
40 | GTGAGTCA | -0.0176
41 | AACGAGTC | -0.0441
42 | AGCATTGG | -0.128
43 | AGCCTCGC | -0.00785
44 | CATCCACC | 0.0969
45 | GTAAGAAA | 0.119
46 | CCAGACCG | 0.0363
47 | AAAGTACT | -0.134
48 | CCCACAGC | -0.0882
49 | AGCCCGGC | -0.0159
50 | AGGAGAGA | -0.211

Some values from the results shown:
PBM E-score, AGGTCAGG is entered as -0.226
PBM E-score, TATGGTAA is entered as 0.00048
PBM E-score, GGGTCACC is entered as -0.209
PBM E-score, ATAATTAG is entered as 0.285
PBM E-score, AGGAGAGA is entered as -0.211
PBM E-score, AGCGGGAG is entered as -0.246
PBM E-score, GTGAGTCA is entered as -0.0176

The results go on.

Row | Sequence | PBM E-score
51 | CGCTGTCC | 0.137
52 | CAAAAGTG | -0.0478
53 | GAGACTCC | -0.0922
54 | AAAGAGTG | -0.142
55 | CACTGCGC | -0.0286
56 | AGTAAAAG | 0.0683
57 | GTCCACTA | 0.00702
58 | CGAAAGTC | -0.0323
59 | GTCAAGTA | -0.27
60 | AGTCGGTA | -0.161
61 | ATTGCGAA | -0.0152
62 | AACCCAGG | -0.0872
63 | GGTGGTAA | 0.14
64 | TGGAAGAA | 0.0443
65 | ATCATGCC | 0.0697
66 | ACTCTACC | 0.0861
67 | AGTGCTGC | -0.0906
68 | CAGTTATC | -0.0844
69 | AAAATCTA | 0.0352
70 | AAACTCTA | -0.145
71 | CAGGTTAA | -0.0833
72 | CTATGAGA | -0.12
73 | ACGAGAGA | -0.16
74 | ATGATGGC | -0.188
75 | AGCTACAA | 0.139

Row | Sequence | PBM E-score
76 | GATGCTAC | -0.02
77 | CCCGTGCC | -0.241
78 | AGCGGCCA | -0.131
79 | CGATCCCC | -0.139
80 | AAAATAGA | 0.0904
81 | ATTCAGTC | -0.0545
82 | AAATCACA | 0.05
83 | TCTCTGAA | -0.0432
84 | GCTCTACC | -0.247
85 | AAAAAGAA | 0.16
86 | AGTATCCC | -0.0378
87 | AACATTGT | 0.176
88 | AATGAAAT | 0.219
89 | AACTCGGT | 0.0455
90 | ACATGATG | -0.024
91 | AATTACGG | 0.0709
92 | ATAGAATC | -0.129
93 | GTTTTTAA | 0.141
94 | GCTCCACC | -0.138
95 | ACCCCTCG | -0.212
96 | AGCTCAAC | 0.0114
97 | AGTGACTG | -0.0238
98 | ACCGTCGG | -0.1
99 | ATCGCCGG | 0.0365
100 | AACCCATA | 0.162

Row | Sequence | PBM E-score
101 | CAGTACCC | -0.15
102 | ACCCACTG | -0.0557
103 | GGCGTTCA | -0.0646
104 | ACCTAAAA | 0.0181
105 | ACTCTTAT | 0.228
106 | GCGGTAGA | -0.0737
107 | TATACAGA | 0.125
108 | CGCATACA | 0.0764
109 | GACCGTTA | 0.0216
110 | TCAGGACA | 0.201
111 | CGCGTCTC | 0.133
112 | CATCGCAC | -0.136
113 | TAGTACGA | 0.0258
114 | TATAGTAA | 0.294
115 | CCCCCCTC | -0.389
116 | ACCAATTA | 0.154
117 | GACAACAC | 0.139
118 | CGAGTCGC | -0.187
119 | AAGCGCAT | 0.0449
120 | ACGGAGGC | -0.217
121 | GGAGTTGA | -0.0602
122 | GATCACGC | 0.226
123 | TCCCGCAA | -0.00465
124 | CGTGACGA | 0.156
125 | ACACTACA | 0.128

Row | Sequence | PBM E-score
126 | ACTCTCCG | -0.0325
127 | TATTACCA | 0.222
128 | CTCCTAGC | -0.119
129 | ACGAATAG | 0.0566
130 | CCAGTAGG | -0.167
131 | AACGGGAG | 0.0563
132 | TCACGCGA | 0.179
133 | GCACGCAC | -0.0597
134 | ACACATAA | 0.187
135 | CCCCTTAA | -0.305
136 | TCTCGGCA | -0.0842
137 | ACACGTAG | -0.189
138 | CCTCGAGA | 0.0762
139 | ACCTCACT | -0.126
140 | GAGCTTTA | -0.0713
141 | GCGGGACC | -0.0389
142 | TAGACGGA | 0.0492
143 | AAGCTGCT | 0.181
144 | CGTAGCAA | 0.0723
145 | CGCAGTCC | -0.0225
146 | GAGGCTTA | -0.0175
147 | CTTCCAAC | 0.0787
148 | CGGTAGGC | -0.154
149 | GTGGCTTA | 0.00103
150 | TTTTAAAA | 0.128

Row | Sequence | PBM E-score
151 | AGGGGAGA | -0.347
152 | AGTGTACA | 0.213
153 | GCATGAAC | 0.105
154 | GCGGAATA | 0.0367
155 | CGGCGTTC | -0.0872
156 | CCTGGTAA | 0.0575
157 | ATTGATAA | 0.2
158 | CCTAGTAG | -0.255
159 | CCCGACGA | -0.0019
160 | CACCATGC | -0.0454
161 | GAGTTTTA | 0.0417
162 | AGCACAAA | 0.181
163 | CAAGACGG | 0.0372
164 | ACCGAATA | 0.0629
165 | GTCCCGGA | 0.0645
166 | ACCATCGT | -0.074
167 | CAGATGGG | -0.197
168 | AACCAGCC | 0.0317
169 | AGATTCAC | -0.129
170 | ATCCAAAC | 0.0554
171 | CGGCGCGC | 0.258
172 | AGTTCCAC | 0.0445
173 | CATCAGCG | -0.0225
174 | CAAAAAAA | 0.147
175 | TATATGGA | -0.0332

In a second layout: results already given
CACCATGC
  PBM E-score = -0.0454
GAGTTTTA
  PBM E-score = 0.0417

More entries.

Row | Sequence | PBM E-score
176 | TACGCTAA | 0.176
177 | ACGTGTTC | -0.058
178 | CAATAACG | 0.204
179 | AACCCCTC | -0.319
180 | CCGTAGAC | -0.0558
181 | ACCTTCCT | -0.271
182 | CAGTTATA | -0.0494
183 | TAGTACCA | -0.0738
184 | CGCTCGGA | 0.248
185 | CCAAGTGG | -0.004
186 | GTATTGCA | -0.0639
187 | TATATTCA | 0.0925
188 | TCTGTGAA | 0.148
189 | CCCGATAA | -0.00516
190 | TGAGAGAA | 0.0668
191 | AGACGGTC | -0.199
192 | CACGTACG | -0.161
193 | CCCTCTAA | -0.132
194 | CAACTCGC | 0.133
195 | GTCACAGA | 0.111
196 | ATAGCGAA | 0.189
197 | CTTGTCCA | -0.0101
198 | CAACAATC | 0.164
199 | CGTCCGTA | -0.0771
200 | ACCTAGAT | -0.138

Row | Sequence | PBM E-score
201 | CGAGTGGA | -0.0976
202 | CTGTTTTA | 0.0976
203 | CAACATGC | 0.0928
204 | AAAAGGTC | -0.0803
205 | CCAATACC | -0.107
206 | GCACCGGA | 0.044
207 | TAGGCCGA | -0.0728
208 | CTTATTTA | -0.00667
209 | AGACTAGA | -0.275
210 | TGTTGTAA | 0.134
211 | TCACAGGA | -0.0436
212 | CCATCTTC | 0.0894
213 | TACATATA | 0.252
214 | GCGGAACC | 0.17
215 | ACGCTACA | 0.0164
216 | GGTCCGAA | 0.143
217 | ACACCAAC | -0.0461
218 | AATCCTTC | -0.16
219 | CACACCAC | 0.191
